Data as given in paper PMC10345115.
No constants are given. Whether binding was seen depends on the method and setting. In cells and extracts the contact can be indirect. Some entries that bind do so weakly or less than the wild type. Sequences can lack the tags named with a protein.

The chains behind the UniProt entries cited, without tags or fusion partners.
UniProt Q92731: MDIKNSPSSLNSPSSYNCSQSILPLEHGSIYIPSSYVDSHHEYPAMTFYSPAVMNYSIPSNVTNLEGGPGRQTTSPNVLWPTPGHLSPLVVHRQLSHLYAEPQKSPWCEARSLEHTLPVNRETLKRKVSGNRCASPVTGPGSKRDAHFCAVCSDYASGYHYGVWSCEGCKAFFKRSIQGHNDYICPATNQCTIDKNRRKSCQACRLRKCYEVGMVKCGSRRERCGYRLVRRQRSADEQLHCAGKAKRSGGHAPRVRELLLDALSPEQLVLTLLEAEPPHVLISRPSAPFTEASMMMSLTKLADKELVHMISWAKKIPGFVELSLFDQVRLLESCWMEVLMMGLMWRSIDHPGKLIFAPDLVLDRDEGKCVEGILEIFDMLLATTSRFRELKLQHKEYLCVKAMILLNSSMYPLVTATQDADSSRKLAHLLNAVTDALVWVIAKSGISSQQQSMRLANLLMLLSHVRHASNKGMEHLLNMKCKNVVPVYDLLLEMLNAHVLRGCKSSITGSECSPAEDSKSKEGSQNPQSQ

Columns and labels:
[1] = target: T1, GST-WFDC3 (UniProt Q8IUB2); experiment: pull-down; in vitro GST pull-down with bacterially expressed GST/His-fused proteins; GST-WFDC3 or GST as bait
T1 sequence: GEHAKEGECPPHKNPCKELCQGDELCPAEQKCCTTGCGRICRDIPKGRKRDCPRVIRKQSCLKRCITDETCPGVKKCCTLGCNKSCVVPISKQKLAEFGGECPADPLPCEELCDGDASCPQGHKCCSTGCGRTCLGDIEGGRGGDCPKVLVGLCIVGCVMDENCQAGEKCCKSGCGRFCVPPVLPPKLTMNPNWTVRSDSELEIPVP

[2] = target: T2, Flag-WFDC3 (UniProt Q8IUB2); experiment: co-IP; 500 µg total protein from transfected cells; immunoprecipitation with 1 µg c-Myc antibody or Flag antibody at 4 °C overnight, Protein A Sepharose beads; western blot
T2 sequence: T1 sequence

Row | binding [1] | binding [2] | Substance
1 | binds |  | His-tagged ERβ (from UniProt Q92731 1-530)
2 |  | binds | Myc-ERβ (from UniProt Q92731 1-530)
